Measurements: ChEMBL document CHEMBL2062492, “Boron-Based 4-Hydroxytamoxifen Bioisosteres for Treatment of de Novo Tamoxifen Resistant Breast Cancer” (ACS Med Chem Lett, 2012)

System: T47D
Experiment: Cytotoxicity against human T47D cells after 5 days
Assay type: functional, cell-based
Conditions: 120 h

## CC/C(=C(\c1ccccc1)c1ccc(OCCN(C)C)cc1)c1ccccc1 [TAMOXIFEN]
  IC50: 1130 nM
